{"sequences": {"note": "The chains behind the UniProt entries cited, without tags or fusion partners. Where a name states a change or a piece, a line headed by the entry shows the natural chain unless it says otherwise.", "UniProt P69720": "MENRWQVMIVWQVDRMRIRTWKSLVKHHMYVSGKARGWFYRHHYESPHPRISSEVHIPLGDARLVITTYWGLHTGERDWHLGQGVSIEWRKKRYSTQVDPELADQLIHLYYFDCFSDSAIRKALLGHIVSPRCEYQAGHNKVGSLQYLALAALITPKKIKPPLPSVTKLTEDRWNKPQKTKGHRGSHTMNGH", "UniProt P69721": "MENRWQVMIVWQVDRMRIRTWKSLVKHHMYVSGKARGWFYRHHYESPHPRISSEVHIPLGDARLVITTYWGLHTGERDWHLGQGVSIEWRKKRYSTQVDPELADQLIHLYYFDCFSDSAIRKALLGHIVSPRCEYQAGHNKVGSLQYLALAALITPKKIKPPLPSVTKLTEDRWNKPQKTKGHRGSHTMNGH", "UniProt P69722": "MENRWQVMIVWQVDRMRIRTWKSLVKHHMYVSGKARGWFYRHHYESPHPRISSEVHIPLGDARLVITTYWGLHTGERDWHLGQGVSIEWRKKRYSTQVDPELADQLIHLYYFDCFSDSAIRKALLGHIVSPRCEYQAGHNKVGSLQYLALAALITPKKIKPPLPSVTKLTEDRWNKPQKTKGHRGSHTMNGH", "UniProt P69723": "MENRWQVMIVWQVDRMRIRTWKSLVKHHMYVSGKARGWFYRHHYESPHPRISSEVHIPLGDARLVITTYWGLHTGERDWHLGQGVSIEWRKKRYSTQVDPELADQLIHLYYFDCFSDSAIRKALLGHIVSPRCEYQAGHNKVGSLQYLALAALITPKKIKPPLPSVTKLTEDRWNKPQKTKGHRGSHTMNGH", "UniProt Q9HC16": "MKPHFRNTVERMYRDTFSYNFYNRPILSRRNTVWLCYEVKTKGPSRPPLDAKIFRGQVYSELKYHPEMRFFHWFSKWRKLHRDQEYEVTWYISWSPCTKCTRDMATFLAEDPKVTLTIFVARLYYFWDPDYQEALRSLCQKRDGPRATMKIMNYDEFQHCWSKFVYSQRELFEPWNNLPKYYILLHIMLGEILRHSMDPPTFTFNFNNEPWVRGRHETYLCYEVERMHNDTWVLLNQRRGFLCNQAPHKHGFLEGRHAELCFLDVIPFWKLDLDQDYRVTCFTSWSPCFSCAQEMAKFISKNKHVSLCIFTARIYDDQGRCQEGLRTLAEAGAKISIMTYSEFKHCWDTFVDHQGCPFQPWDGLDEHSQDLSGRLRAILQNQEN"}, "source": "PubChem BioAssay AID1117319", "about": "(Southern Research Institute, 2015)", "note": "The campaign covered roughly 260,000 compounds. About 1,500 (0.58%) were called active. Inconclusive results, whose numbers are uncertain, are shown with a selection of clear calls.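 The calls were made as follows: active = inhibition above a set limit at one or more doses, reproduced on every date tested; inconclusive = results disagree between test dates, or hit never tested in dose response; inactive = the rest.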"}
{"target": "Virion infectivity factor (Human immunodeficiency virus type 1 group M subtype B (isolate BH10)) + Virion infectivity factor (Human immunodeficiency virus type 1 group M subtype B (isolate BRU/LAI)) + Virion infectivity factor (Human immunodeficiency virus type 1 group M subtype B (isolate PCV12)) + Virion infectivity factor (Human immunodeficiency virus type 1 group M subtype B (isolate HXB2)) + DNA dC->dU-editing enzyme APOBEC-3G (Homo sapiens) (UniProt P69720+P69721+P69722+P69723+Q9HC16)", "test": "inhibitors of Vif binding to APOBEC3G peptide, primary screen, biochemical, TR-FRET, GST-Vif 1-94, biotin-A3G peptide, dose response retest (AID 1117319);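 also: Vif residues 1-94 fused to GST binding biotinylated APOBEC3G peptide 110-148; 0% = full assay without inhibitor and 100% = GST in place of GST-Vif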", "conditions": "active compounds read high"}
{"smiles": "CC1=CC(C)(C)N(C(=O)CSc2nnc(C)s2)c2ccc(C)cc21", "inhibition": "inconclusive: 56.8%"}
{"smiles": "O=C(CN1C(=O)c2cccc3cccc(c23)C1=O)NCCN1CCOCC1", "inhibition": "inconclusive: 53.3%"}
{"smiles": "FC(F)(F)c1cccc(Sc2nc(-c3ccccc3)nnc2C(F)(F)F)c1", "inhibition": "inconclusive: 40.1%"}
{"smiles": "Cc1onc(C(=O)Nc2c(C)n(C)n(-c3ccccc3)c2=O)c1[N+](=O)[O-]", "inhibition": "inconclusive: 64.1%"}
{"smiles": "N#Cc1cccc(N=Cc2c(O)ccc3ccccc23)c1", "inhibition": "inconclusive: 39%"}
{"smiles": "Cc1nc(CCNC(=O)COc2ccccc2)cs1", "inhibition": "inconclusive: 54.6%"}
{"smiles": "Cc1ccc(NC(=O)CN2C(=O)NC3(CCc4ccccc43)C2=O)cc1", "note": "(stereo unspecified)", "inhibition": "inconclusive: 43.6%"}
{"smiles": "Nc1sc(-c2ccccc2)cc1C(=O)O", "inhibition": "inconclusive: 41.3%"}
{"smiles": "C/C(CC(=O)N1CCCC1)=N\\NC(=O)c1cc2ccccc2cc1O", "inhibition": "inconclusive: 58.5%"}
{"smiles": "Cc1cc[n+](-c2[nH]c(=O)sc2/C=N/NC(=O)c2ccccc2[O-])cc1C", "inhibition": "inconclusive: 35.3%"}
{"smiles": "Cc1oc(C)c2c(=O)ccc3c(c12)OC(N)=C(C#N)C3c1ccccc1Cl", "note": "(stereo unspecified)", "inhibition": "inconclusive: 55.6%"}
{"smiles": "CCOC(=O)c1ccc(NC(=S)NCCC2=CCCCC2)cc1", "inhibition": "inconclusive: 37.8%"}
{"smiles": "Cc1ccc(S(=O)(=O)NCCC(=O)Nc2nccs2)cc1", "inhibition": "inconclusive: 51.4%"}
{"smiles": "COc1ccc(/C=N/c2c(-c3ccco3)nc3ccccn23)cc1OC", "inhibition": "inconclusive: 66.6%"}
{"smiles": "CC1CCN(CC(=O)Nc2ccc(S(=O)(=O)NC3CC3)cc2)CC1", "inhibition": "inconclusive: 57.5%"}
{"smiles": "c1cc2[nH]snc2c2nc(C3CC3)nc12", "inhibition": "inconclusive: 54.5%"}
{"smiles": "O=C1OC2(c3ccccc3)C3CCCC2C13", "inhibition": "inconclusive: 47.6%"}
{"smiles": "Cc1ccsc1-c1nc(C(N)=O)c2[nH]c(=O)n(-c3ccc(Cl)cc3)c2n1", "inhibition": "inconclusive: 36.3%"}
{"smiles": "Cc1nn2c(NCc3cccnc3)c3c(nc2c1-c1ccccc1)CCC3", "inhibition": "inconclusive: 52.3%"}
{"smiles": "Cc1ccc(CN(C(=O)c2ccco2)C(C(=O)NC2CCCC2)c2cccnc2)cc1", "note": "(stereo unspecified)", "inhibition": "inconclusive: 37.3%"}
{"smiles": "O=C1/C(=C/c2ccco2)Cc2ccccc21", "inhibition": "inconclusive: 39.8%"}
{"smiles": "Cn1nc(C(C)(C)C)cc1C(=O)NN1CCOCC1", "inhibition": "inconclusive: 50.9%"}
{"smiles": "Cc1ccc(C)c(N2CCN(S(=O)(=O)c3ccc4c(c3)CCC(=O)N4)CC2)c1", "inhibition": "inactive: 24.6%"}
{"smiles": "COc1ccc(-n2c(C)cc(/C=C3\\SC(=S)NC3=O)c2C)cc1", "inhibition": "inconclusive: 46.2%"}
{"smiles": "Cn1c(C(=O)NCc2cccs2)cc2oc3ccccc3c21", "inhibition": "inactive: 2.73%"}
{"smiles": "Cc1ccc(-n2ncc3c(=O)[nH]c(SCC(=O)N4CCC(C)CC4)nc32)cc1C", "inhibition": "inconclusive: 10.9%"}
{"smiles": "COc1ccc(CCC(C)Nc2ccc(F)c(F)c2)cc1", "note": "(stereo unspecified)", "inhibition": "inconclusive: 35%"}
{"smiles": "COc1cc(NCCCCCCCN)c2ncccc2c1", "inhibition": "inactive: 3.69%"}
{"smiles": "O=C(O)C1CC(c2ccc(F)cc2)=NO1", "note": "(stereo unspecified)", "inhibition": "inconclusive: 55.5%"}
{"smiles": "O=C(NNC(=O)c1cccc(Br)c1)C(=O)N1CCCCC1", "inhibition": "inconclusive: 40.6%"}
{"smiles": "O=C(O)Cn1c(-c2cscn2)nc2ccccc21", "inhibition": "inconclusive: 34.7%"}
{"smiles": "CCC(C)NC(=O)CSc1nc2ccc(N3CCOCC3)cc2c(=O)n1CCc1ccccc1", "note": "(stereo unspecified)", "inhibition": "inconclusive: 51.5%"}
{"smiles": "COc1ccc(NC(=O)c2ccc(NS(=O)(=O)c3c(C)noc3C)cc2)cc1OC", "inhibition": "inconclusive: 50.9%"}
{"smiles": "CCn1[nH]c(=O)c(=Nc2c(C)n(C)n(-c3ccccc3)c2=O)cc1-c1ccc(Cl)cc1", "inhibition": "inconclusive: 45.2%"}
{"smiles": "COc1cccc(C(=O)NCc2ccc(-c3nc4ccccc4s3)cc2)c1", "inhibition": "inconclusive: 49.2%"}
{"smiles": "Cc1cc(N(C)C)nc(Nc2ccccc2)n1", "inhibition": "inconclusive: 58.3%"}
{"smiles": "CC(C)(C)C(=O)Nc1ccc(S(=O)(=O)c2ccc(NC(=O)C(C)(C)C)cc2)cc1", "inhibition": "inconclusive: 35.3%"}
{"smiles": "CCOC(=O)C=Nc1c(N)n(C)c(=O)n(C)c1=O", "inhibition": "inactive: -1.01%"}
{"smiles": "O=C/C(=C\\Nc1ccc(C(=O)N2CCOCC2)cc1)c1nc2ccccc2o1", "inhibition": "inconclusive: 37%"}
{"smiles": "CCOc1ccc(-n2c(=S)sc3c(=O)[nH]c(SCC(=O)NCC4CCCO4)nc32)cc1", "note": "(stereo unspecified)", "inhibition": "inconclusive: 39.7%"}
{"smiles": "CCn1nc([N+](=O)[O-])c(C(C#N)c2nc3cc(C(F)(F)F)ccc3s2)c(Cl)c1=O", "note": "(stereo unspecified)", "inhibition": "inconclusive: 43.8%"}
{"smiles": "Cc1ccc(N(CCCCN2C(=O)c3ccccc3C2=O)C(=O)c2ccc(Cl)s2)cc1", "inhibition": "inconclusive: 33.2%"}
{"smiles": "COc1ccccc1N1CC(C(=O)OCc2nc(N)nc(Nc3ccccc3)n2)CC1=O", "note": "(stereo unspecified)", "inhibition": "inactive: 15.4%"}
{"smiles": "C[C@]12C=CC(=O)C=C1CC[C@H]1[C@@H]3C[C@@H](O)[C@](O)(C(=O)CO)[C@@]3(C)C[C@H](O)[C@@]12F", "inhibition": "inconclusive: 40.9%"}
{"smiles": "CC(C)(C)NC(=O)CSc1nnc(C2CC2)n1Cc1ccccc1", "inhibition": "inconclusive: 33.4%"}
{"smiles": "CC(c1ccncn1)N(C)Cc1nc(-c2ccc(C(F)(F)F)cc2)no1", "note": "(stereo unspecified)", "inhibition": "inconclusive: 42.8%"}
{"smiles": "Cc1ccc(-c2ccc(/C=N/N=C3/NC(=O)C(CC(=O)O)S3)o2)c([N+](=O)[O-])c1", "note": "(stereo unspecified)", "inhibition": "inconclusive: 48.8%"}
{"smiles": "COc1cc(CNCCc2c[nH]c3ccccc23)ccc1OCc1ccc(F)cc1", "inhibition": "inactive: 12.4%"}
{"smiles": "Cc1cc(C)c(S(=O)(=O)c2ccccc2Cl)c(Cl)n1", "inhibition": "inconclusive: 34.9%"}
{"smiles": "CCOC(=O)/C=C/C(=O)OCC(=O)Nc1ccc(Cl)cn1", "inhibition": "inconclusive: 39.8%"}
{"smiles": "COC(=O)c1cc(CSc2nc3ccccc3[nH]2)oc1C", "inhibition": "inactive: -2.28%"}
{"smiles": "Cc1ccc(C)c(-n2nnnc2Sc2nc([N+](=O)[O-])nn2C)c1", "inhibition": "inconclusive: 37.3%"}
{"smiles": "COc1cc(C(=O)NCC(c2cccnc2)N2CCN(c3ccccc3)CC2)cc(OC)c1OC", "note": "(stereo unspecified)", "inhibition": "inconclusive: 52.7%"}
{"smiles": "O=C(NCC1CCCN(C(=O)CN2CCCCC2)C1)c1ccccc1Cl", "note": "(stereo unspecified)", "inhibition": "inconclusive: 62.7%"}
{"smiles": "CN(C)S(=O)(=O)c1cc(S(=O)(=O)N(C)C)c(Cl)cc1N", "inhibition": "inconclusive: 45.2%"}
{"smiles": "CCCCCCNC(=O)Cc1nc2nc(C)cc(C)n2n1", "inhibition": "inconclusive: 44.8%"}
